We go through 1 substance from PMC8635973.

Amino acid sequences for entries named in this document (tags omitted). A change or cut given only in a name is not applied to a line headed by its entry.
UniProt Q9Y5K5: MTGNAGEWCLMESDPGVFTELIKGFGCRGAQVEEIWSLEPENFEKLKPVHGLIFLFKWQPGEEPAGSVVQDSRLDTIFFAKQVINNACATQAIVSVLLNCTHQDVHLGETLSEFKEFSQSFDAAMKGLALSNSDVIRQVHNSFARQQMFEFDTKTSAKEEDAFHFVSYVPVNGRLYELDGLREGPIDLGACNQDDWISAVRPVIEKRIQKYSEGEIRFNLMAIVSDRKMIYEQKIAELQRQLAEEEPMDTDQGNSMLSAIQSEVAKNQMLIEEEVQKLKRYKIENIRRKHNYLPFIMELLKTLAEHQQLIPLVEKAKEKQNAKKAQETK
UniProt P54727: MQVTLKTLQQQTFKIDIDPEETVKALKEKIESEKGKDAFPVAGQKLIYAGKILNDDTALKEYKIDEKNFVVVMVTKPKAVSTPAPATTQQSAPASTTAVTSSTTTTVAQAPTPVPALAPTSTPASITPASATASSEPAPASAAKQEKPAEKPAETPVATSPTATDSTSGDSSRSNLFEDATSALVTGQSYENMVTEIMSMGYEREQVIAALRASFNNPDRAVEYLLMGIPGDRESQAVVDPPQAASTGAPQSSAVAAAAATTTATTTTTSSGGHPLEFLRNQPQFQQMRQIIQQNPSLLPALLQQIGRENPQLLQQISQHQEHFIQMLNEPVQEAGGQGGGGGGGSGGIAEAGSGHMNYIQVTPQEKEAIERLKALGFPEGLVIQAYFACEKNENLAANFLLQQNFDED

No constants are given. Whether binding was seen depends on the method and setting. Binding seen in cells or lysates may run through a third protein. Some binding calls cover weakened binding; strength is not graded here.

This experiment concerns the target Flag-GFP-UCH37(C88A) (UniProt Q9Y5K5). The experiment is described as follows: co-IP; anti-Flag agarose, 4 °C overnight, low salt lysis buffer (20 mM HEPES pH 7.9, 50 mM NaCl, 10 mM KCl, 1.5 mM MgCl2, 10 % glycerol, 0.5 % Triton X-100, 10 mM iodoacetamide); HCT116 cells expressing Flag-GFP-UCH37, with or without 0.2 M sucrose for 30 min; immunoblot. A general note: A western blot detects proteins with antibodies after separation by electrophoresis.

On to “RAD23B (endogenous) (from UniProt P54727 1-409)”, for which the binding entry is recorded as “binds”.
